The record followed here is US7740906B2, “Wood preservatives” (Rohm and Haas Company, priority 2005, dated 2010).

The data set can be described thus: Penetration of IPBC, Propiconazole and Tebuconazole (alone or with DCOIT) into pressure treated wood. The settings on record: single active, 1500 ppm treatment solution, polymer G 5:1, 0.03% 15S40.
Turning to `CC(C)(C)C(O)(CCc1ccc(Cl)cc1)Cn1cncn1` (racemic) [Tebuconazole, (RS)-1-p-chlorophenyl-4,4-dimethyl-3-(1H-1,2,4-triazol-1-ylmethyl)pentan-3-ol], the “% retained @ 10 mm” value is 46%.
As to `CCCCNC(=O)OCC#CI` [IPBC, N n-butyl iodopropargyl carbamate], the “% retained @ 10 mm” value turned out to be 77%.
Next, `CCCC1COC(Cn2cncn2)(c2ccc(Cl)cc2Cl)O1` (stereo not drawn) [Propiconazole, cis-trans-1-[2-(2,4-dichlorophenyl)-4-propyl-1,3-dioxolan-2-ylmethyl]-1H-1,2,4-triazole]: 42%.
